Data reported in publication PMC3068935.
Results are given in words; binding and its absence hold for the method and conditions named. Binding seen in cells or lysates may run through a third protein. Some results given as binding are weak or reduced against the parent protein; the word gives no strength. Sequences can lack the tags named with a protein.

Molecular target: T1, FLAG-ATF3 (activating transcription factor 3) (UniProt P18847)
T1 sequence: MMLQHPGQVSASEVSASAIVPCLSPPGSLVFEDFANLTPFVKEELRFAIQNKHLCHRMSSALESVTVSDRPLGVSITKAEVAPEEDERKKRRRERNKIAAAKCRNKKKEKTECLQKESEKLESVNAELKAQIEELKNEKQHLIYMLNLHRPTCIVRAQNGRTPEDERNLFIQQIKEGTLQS
Assay: co-IP

- binding: binds
Substance: p53 (from UniProt P04637 1-393)
